Data reported in patent US12428360B2, “Abating unwanted emulsion polymerization during extractive distillation of conjugated diene monomers” (ECOLAB USA INC., priority 2022, dated 2025).
For at least one compound, name, drawing or mass did not settle the structure.

Assays:
[1] = Partition coefficient between DMF and hexane; type: physicochemical; details: ratio DMF:hexane
[2] = Partition coefficient between toluene and water; type: physicochemical; details: ratio toluene:water

| SMILES | Partition Coefficient between DMF and Hexane [1] | Partition Coefficient between toluene and water [2] |
| --- | --- | --- |
| CC1(C)CC(=O)CC(C)(C)N1[O] [OTEMPO, 4-oxo-2,2,6,6-tetramethylpiperidin-1-oxyl] | 97:3 | – |
| CC1(C)CC(O)CC(C)(C)N1[O] [HTEMPO, 4-hydroxy-2,2,6,6-tetramethylpiperidin-1-oxyl, reference compound] | 95:5 | 18:82 |
